We go through 1 compound from PubChem BioAssay AID248 (DTP/NCI, 2004).

Structures are written as SMILES. The list is a part of this screen's results and no random one: it gathers tests that were run many times, whatever their T/C, doses with no T/C, and many T/C values between a quarter and a half above the control. Other doses and runs of a compound stand elsewhere. T/C: endpoint of the treated group in % of that of the vehicle group. Some doses have a count of surviving animals in place of a T/C: the source holds a T/C of zero for them, seemingly a mark for toxic or unscored doses. Some doses without a T/C left all or most animals alive at the check, yet need not have been tolerated: survival well below the control is almost never listed, so the zero probably covers shortened survival too. Counts of survivors are from the toxicity check (mostly the fifth day) where no day follows; animals may have died later. Schedule codes are those of the source, taken here to give the interval after Q, in days (D) or hours (H), and the number of doses after X.

This assay relates to L1210 leukemia ip in BDF1 mice, survival T/C. Description: NCI In Vivo Anticancer Drug Screen. Data for tumor model L1210 Leukemia (intraperitoneal) in B6D2F1 (BDF1) mice. The note with it: T/C endpoint: mean survival time; dose: 400.0 mg/kg/injection; schedule: Q04DX003 (ip); vehicle: saline; higher T/C = longer survival.

Turning to `O=S(=O)(O)N(O)S(=O)(=O)O`, the survivor count was 3 of 3.
